Reference: PMC5177772
These are yes or no findings as the source states them, for the method shown. In cells and extracts the contact can be indirect. Some entries that bind do so weakly or less than the wild type.

By UniProt entry, the sequences of proteins in these tests, tags left out. Where a name states a change or a piece, a line headed by the entry shows the natural chain unless it says otherwise. Residues count along the entry.
UniProt P10275: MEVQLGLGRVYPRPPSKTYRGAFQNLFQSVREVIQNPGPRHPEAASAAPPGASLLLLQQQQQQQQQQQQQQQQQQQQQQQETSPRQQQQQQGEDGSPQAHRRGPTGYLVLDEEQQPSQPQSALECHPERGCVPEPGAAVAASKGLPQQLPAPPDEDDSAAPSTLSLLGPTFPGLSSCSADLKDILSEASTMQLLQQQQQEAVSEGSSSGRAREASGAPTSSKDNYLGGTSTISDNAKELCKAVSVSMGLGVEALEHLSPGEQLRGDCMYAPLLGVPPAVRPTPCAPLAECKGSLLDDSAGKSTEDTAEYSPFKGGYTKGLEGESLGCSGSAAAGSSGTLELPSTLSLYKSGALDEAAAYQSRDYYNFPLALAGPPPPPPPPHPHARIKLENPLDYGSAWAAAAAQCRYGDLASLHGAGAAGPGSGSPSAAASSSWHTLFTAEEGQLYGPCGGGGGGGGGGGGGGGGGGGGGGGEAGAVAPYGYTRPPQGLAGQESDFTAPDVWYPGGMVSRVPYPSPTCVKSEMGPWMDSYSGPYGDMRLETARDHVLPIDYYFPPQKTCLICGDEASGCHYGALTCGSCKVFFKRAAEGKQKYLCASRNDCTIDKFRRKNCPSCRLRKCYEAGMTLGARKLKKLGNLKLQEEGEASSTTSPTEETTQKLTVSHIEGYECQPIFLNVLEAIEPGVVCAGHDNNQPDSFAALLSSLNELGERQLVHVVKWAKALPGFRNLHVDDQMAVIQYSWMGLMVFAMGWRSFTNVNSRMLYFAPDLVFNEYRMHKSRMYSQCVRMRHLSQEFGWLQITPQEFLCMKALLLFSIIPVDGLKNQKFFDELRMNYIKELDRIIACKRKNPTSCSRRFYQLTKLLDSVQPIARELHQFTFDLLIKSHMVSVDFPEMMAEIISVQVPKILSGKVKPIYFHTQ
UniProt Q9UPP1, residues 37-1060: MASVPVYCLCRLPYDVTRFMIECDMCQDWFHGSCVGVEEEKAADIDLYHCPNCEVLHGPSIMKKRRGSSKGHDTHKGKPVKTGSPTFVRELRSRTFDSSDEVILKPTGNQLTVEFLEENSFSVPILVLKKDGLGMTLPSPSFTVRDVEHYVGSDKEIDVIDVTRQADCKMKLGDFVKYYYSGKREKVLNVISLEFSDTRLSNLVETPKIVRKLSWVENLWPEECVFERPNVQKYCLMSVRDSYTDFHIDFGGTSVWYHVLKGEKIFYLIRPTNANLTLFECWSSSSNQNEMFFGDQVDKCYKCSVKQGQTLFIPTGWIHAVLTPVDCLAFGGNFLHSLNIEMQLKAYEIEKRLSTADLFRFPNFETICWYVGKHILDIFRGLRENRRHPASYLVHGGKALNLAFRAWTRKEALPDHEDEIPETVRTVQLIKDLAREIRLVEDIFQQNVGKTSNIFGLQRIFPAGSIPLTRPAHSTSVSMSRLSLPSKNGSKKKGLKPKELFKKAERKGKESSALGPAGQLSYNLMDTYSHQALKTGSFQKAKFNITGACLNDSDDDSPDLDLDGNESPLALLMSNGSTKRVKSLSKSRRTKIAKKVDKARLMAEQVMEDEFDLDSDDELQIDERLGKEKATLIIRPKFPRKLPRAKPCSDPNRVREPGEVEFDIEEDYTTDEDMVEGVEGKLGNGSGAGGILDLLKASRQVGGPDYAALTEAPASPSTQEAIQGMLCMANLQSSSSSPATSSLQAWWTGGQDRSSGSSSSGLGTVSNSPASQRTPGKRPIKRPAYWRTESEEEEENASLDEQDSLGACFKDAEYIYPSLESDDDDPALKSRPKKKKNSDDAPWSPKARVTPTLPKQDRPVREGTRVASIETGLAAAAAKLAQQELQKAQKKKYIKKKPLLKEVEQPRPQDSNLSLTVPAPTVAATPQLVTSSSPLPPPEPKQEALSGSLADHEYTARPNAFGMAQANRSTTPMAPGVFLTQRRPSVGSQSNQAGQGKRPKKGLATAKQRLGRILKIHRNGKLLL

How the values were obtained:
[1] = molecular target: GFP-tagged androgen receptor (AR) (UniProt P10275); test: co-IP; Flag-PHF8 (wild type or H247A) and GFP-AR co-expressed in 293FT/HEK293T cells, with or without 10 nM DHT; lysis in RIPA buffer; immunoprecipitation with anti-Flag or anti-GFP antibody overnight at 4 °C, protein A/G-Sepharose, PBS washes; western blot
[2] = molecular target: Flag-tagged PHF8 (plant homeo domain finger protein 8), wild type (UniProt Q9UPP1); test: as above

binding [1] | binding [2] | Substance
binds |  | Flag-tagged PHF8 (plant homeo domain finger protein 8), wild type (from UniProt Q9UPP1-2 1-1024)
 | binds | GFP-tagged androgen receptor (AR) (from UniProt P10275 1-920)
